Test results as given in paper PMC7264293, “Multi-site-mediated entwining of the linear WIR-motif around WIPI β-propellers for autophagy” (Nature Communications, 2020).
These are yes or no findings as the source states them, for the method shown. For some of these results: In cells and extracts the contact can be indirect. Some binding calls cover weakened binding; strength is not graded here. Where a sequence is shown, tags or fusion partners need not be part of it.

By UniProt entry, the sequences of proteins in these tests, tags left out. Where a name states a change or a piece, a line headed by the entry shows the natural chain unless it says otherwise. Chains listed by the source or under a name are the forms on record and can include a tag or linker.
WIPI3-Δloop N19A/D21A (Q5MNZ6, form named): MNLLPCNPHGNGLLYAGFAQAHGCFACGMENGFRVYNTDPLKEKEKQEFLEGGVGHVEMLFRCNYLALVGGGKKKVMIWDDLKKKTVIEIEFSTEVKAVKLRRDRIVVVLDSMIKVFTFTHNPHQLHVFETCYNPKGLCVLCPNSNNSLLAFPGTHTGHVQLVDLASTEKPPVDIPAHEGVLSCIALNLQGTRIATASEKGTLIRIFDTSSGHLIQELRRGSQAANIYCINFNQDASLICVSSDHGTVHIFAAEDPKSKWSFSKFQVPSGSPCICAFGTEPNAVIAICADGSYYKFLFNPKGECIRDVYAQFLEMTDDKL
WIPI3-Δloop (Q5MNZ6, form named): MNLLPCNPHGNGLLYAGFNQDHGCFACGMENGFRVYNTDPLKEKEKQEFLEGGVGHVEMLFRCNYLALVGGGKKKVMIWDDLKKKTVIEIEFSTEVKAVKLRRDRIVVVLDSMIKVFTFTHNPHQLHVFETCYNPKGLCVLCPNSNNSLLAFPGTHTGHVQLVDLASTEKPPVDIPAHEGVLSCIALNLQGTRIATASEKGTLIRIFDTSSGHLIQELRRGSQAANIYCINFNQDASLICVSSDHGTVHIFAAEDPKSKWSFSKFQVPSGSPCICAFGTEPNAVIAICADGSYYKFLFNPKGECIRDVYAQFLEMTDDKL

How the values were obtained:
[1] = biological target: Tandem-Strep-Flag-tagged full-length ATG2A (wild-type) (human) (UniProt Q2TAZ0); assay: pull-down; GFP-WIPI4 and TSF-ATG2A co-transfected into HEK293T cells; lysate on Strep-Tactin Sepharose beads, 1 h at 4 °C; eluted with desthiobiotin; western blot with anti-GFP and anti-Flag
[2] = biological target: WIPI3-Δloop N19A/D21A (human) (UniProt Q5MNZ6); assay: ITC; WIPI3 proteins in the sample cell, GB1-tagged ATG2A fragments in the syringe; 25 °C; 50 mM Tris-HCl pH 8.0, 100 mM NaCl, 1 mM EDTA, 1 mM DTT; model of one binding site; both purified
WIPI3-Δloop (human) = WIPI3-Δloop (human) (UniProt Q5MNZ6); assay: as above

binding (WIPI3-Δloop (human))	Binder	further results
	GFP-tagged WIPI4 (protein, UniProt Q9Y484 1-360) MTQQPLRGVTSLRFNQDQSCFCCAMETGVRIYNVEPLMEKGHLDHEQVGSMGLVEMLHRSNLLALVGGGSSPKFSEISVLIWDDAREGKDSKEKLVLEFTFTKPVLSVRMRHDKIVIVLKNRIYVYSFPDNPRKLFEFDTRDNPKGLCDLCPSLEKQLLVFPGHKCGSLQLVDLASTKPGTSSAPFTINAHQSDIACVSLNQPGTVVASASQKGTLIRLFDTQSKEKLVELRRGTDPATLYCINFSHDSSFLCASSDKGTVHIFALKDTRLNRRSALARVGKVGPMIGQYVDSQWSLASFTVPAESACICAFGRNTSKNVNSVIAICVDGTFHKYVFTPDGNCNREAFDVYLDICDDDDF	binding [1]: binds
	PRDGEPVVTQLHPGPIVVRDGYFSRPIGSTD (peptide, UniProt Q2TAZ0 1374-1404) [GB1-tagged ATG2A short fragment (1374-1404), the WIR-peptide]	binding [2]: no binding
no binding	PRDGEPVVTQLHPGPIVVRGDGYFSRPIGSTD (peptide, UniProt Q2TAZ0 1374-1404) [GB1-tagged WIR-peptide with a glycine inserted between R1392 and D1393]	
no binding	PRDGEPVVTQLHPGPIVVRDGGYFSRPIGSTD (peptide, UniProt Q2TAZ0 1374-1404) [GB1-tagged WIR-peptide with a glycine inserted between D1393 and G1394]	
